System: CWR22R
Test: cells
Assay type: functional, cell-based
Conditions: Homo sapiens, 22Rv1, 48 h

Work on `C[C@](O)(Cn1cc(F)cn1)C(=O)Nc1ccc(C#N)c(C(F)(F)F)c1` yielded an IC50 of 12.9 µM.

From ChEMBL document CHEMBL5518238, “Structure-Activity Relationship (SAR) Studies of Novel Monovalent AR/AR-V7 Dual Degraders with Potent Efficacy against Advanced Prostate Cancer” (J Med Chem, 2024)
